Values from PubChem BioAssay AID504786 (Drosophila RNAi Screening Center, 2011)
Purpose: 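Positive regulators of HIF-driven reporter output in Drosophila cells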 (primary screen). Cells: Drosophila S2 cells with a stable HIF luciferase reporter. Reagent: long dsRNA against Drosophila genes, about 0.2 µg dsRNA per well of a 384-well plate. Duration: three days of knock-down, then 20 h of DFO before reading. Conditions: desferrioxamine (DFO) at 100 µM, an iron chelator that mimics hypoxia, for 20 h. Measurement: 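Firefly luciferase driven by the mouse ldh-a hypoxia-response element, measured after 20 h of 100 µM DFO; z-scores per plate, higher means more signal lost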. Scale: z-score: higher = stronger loss of HIF reporter signal.
The deposit covers about 21,000 reagents; shown is an unselected part of those with a known target gene and a result. 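Primary screen; positive scores mean lost reporter signal, so the sign may be inverted from the usual convention.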 Reagents against one gene are numbered here. Names joined by + are all predicted targets of the reagent.

gene	reagent	z-score, replicate 1	z-score, replicate 2	z-score, replicate 3	z-score, replicate 4
CG3955	1	-0.2	0		
nAChRalpha2 (nicotinic Acetylcholine Receptor alpha2)	1	-0.2	0		
CG30046	1	-0.1	-0.2		
Gfat2 (Glutamine:fructose-6-phosphate aminotransferase 2)	1	-0.4	-0.3		
eEFSec	1	1.6	1.9		
CG34316	1	-0.6	-0.4		
CG42268	1	-0.4	-0.7		
CG42268	2	-0.3	-0.6		
CG34227	1	-0.1	-0.1		
CG34227	2	-0.2	-0.1		
Mocs1 (Molybdenum cofactor synthesis 1)	1	-0.3	-0.2		
hec (hector)	1	-0.3	-0.2		
beat-IIIc (beaten path IIIc)	1	0.1	-0.3		
beat-IIIc (beaten path IIIc)	2	0	-0.3		
CG12493	1	-0.5	-0.3		
Mst87F (Male-specific RNA 87F)	1	-0.3	0		
Irc (Immune-regulated catalase)	1	-0.1	-0.2		
CG32301	1	-0.3	-0.6		
tth (toothrin)	1	-0.4	-0.6		
CG13947	1	-0.2	0.3		
Arfrp1 (ADP-ribosylation factor related protein 1)	1	-0.4	-0.6		
CG5274	1	-0.3	-0.5		
Fancm (Fanconi anemia group M helicase)	1	-0.1	0.1		
Bet5 (Blocked early in transport 5)	1	-0.8	-0.1		
Arc1 (Activity-regulated cytoskeleton associated protein 1)	1	-0.3	-0.3	-0.5	-0.3
CG32391	1	-0.1	0.9		
pcx (pecanex)	1	-0.3	0.1		
pcx (pecanex)	2	-0.3	0.4		
pcx (pecanex)	3	-0.3	0.4		
pcx (pecanex)	4	-0.1	0.1		
pcx (pecanex)	5	-0.2	0.4		
pcx (pecanex)	6	-0.2	-0.1		
CG7497	1	-0.2	-0.2		
galectin	1	-0.1	0.3		
hiro (highroad)	1	-0.2	0.3		
btsz (bitesize)	1	0.6	-0.9		
btsz (bitesize)	2	0	0.3		
Or13a (Odorant receptor 13a)	1	-0.1	-0.2		
CG3868	1	-0.3	-0.3		
TrpA1 (Transient receptor potential cation channel A1)	1	-0.2	-0.3		
CG34238	1	-0.3	-0.4		
Cln7	1	-0.2	-0.9		
COX7C (Cytochrome c oxidase subunit 7C)	1	0.6	1.1	0.5	0.8
CG32037	1	-0.3	-0.3		
mtrm (matrimony)	1	-0.3	0		
Cog8 (Component of oligomeric golgi complex 8)	1	-0.3	-0.1		
ocm (over compensating males)	1	0.1	-0.1		
CG4892	1	-0.1	-0.3		
CG31676	1	-0.4	-0.4		
CG11562	1	-0.3	-0.6		
Vps36 (Vacuolar protein sorting 36)	1	-0.1	-0.1		
Usp2 (Ubiquitin specific protease 2)	1	0.4	0		
Usp2 (Ubiquitin specific protease 2)	2	-0.2	-0.5		
Usp2 (Ubiquitin specific protease 2)	3	1	0.5		
X11Lbeta	1	-0.3	-0.7		
X11Lbeta	2	-0.2	-0.3		
Oatp26F (Organic anion transporting polypeptide 26F)	1	-0.3	-0.5		
Oatp26F (Organic anion transporting polypeptide 26F)	2	-0.1	0.1		
Oatp26F (Organic anion transporting polypeptide 26F)	3	-0.2	-0.2		
Dis3	1	1.2	2.1		
tkv (thickveins)	1	0.1	0.3		
tkv (thickveins)	2	-0.2	0		
Tim17b2 (Translocase inner membrane 17)	1	2.7	-0.6		
RpL26 (Ribosomal protein L26)	1	7.3	7.2		
prt (portabella)	1	-0.2	0.7		
Frmd5 (FERM domain containing)	1	-0.3	-0.4		
FipoQ (F-box involved in polyQ pathogenesis)	1	1.2	1.5		
RhoGAP5A (Rho GTPase activating protein at 5A)	1	-0.4	0		
Obp56e (Odorant-binding protein 56e)	1	-0.2	-0.4		
karr	1	-0.1	-0.3		
TbCMF46	1	-0.3	-0.5		
CG5776	1	-0.2	-0.3		
CG31098	1	-0.4	-0.6		
CG34033	1	-0.1	-0.1		
Npc2e (Niemann-Pick type C-2e)	1	-0.3	-0.6		
TwdlK (TweedleK)	1	2.4	0.9		
CG14671	1	-0.4	-0.2		
Rnp4F (RNA-binding protein 4F)	1	-0.4	-0.4		
pbl (pebble)	1	-0.3	0.8		
Srg1 (Sting-regulated gene 1)	1	-0.1	0.9		
CG34269	1	-0.2	-0.2		
CG7326	1	0	0.1		
CG4972	1	-0.1	0.5		
CG15765	1	0	0.7		
CG4730	1	-0.3	0.6		
CG9101	1	0	-0.6		
Gnmt (Glycine N-methyltransferase)	1	-0.4	-0.3		
Coq3 (Coenzyme Q3)	1	-0.3	-0.5		
Sox102F	1	-0.3	-0.6		
drl (derailed)	1	-0.3	-0.2		
CCT8 (Chaperonin containing TCP1 subunit 8)	1	0.4	2.3		
CG6495	1	-0.4	-0.3		
CG7945 + yellow-k	1	-0.1	-0.1		
pira (pirate)	1	-0.4	-0.8		
CG11977	1	-0.3	-0.5		
CG13313	1	-0.3	-0.3		
CG15399	1	-0.1	0		
CG9981	1	0	-0.7		
CG42376 + cin	1	-0.2	-0.8		
CG32333	1	-0.3	-0.5		
CG32333	2	-0.2	-0.2		
DAAM (Dishevelled Associated Activator of Morphogenesis)	1	0.1	-0.4		
Cpr76Bc (Cuticular protein 76Bc)	1	-0.3	-0.8		
Spn43Ab (Serpin 43Ab)	1	0.2	0.3		
CG15144	1	-0.3	-0.8		
CG18335	1	-0.2	-0.2		

13 entries from above, reduced to “z-score, replicate 2”.
TrpA1 (Transient receptor potential cation channel A1): -0.3
CG34238: -0.4
Cln7: -0.9
COX7C (Cytochrome c oxidase subunit 7C): 1.1
CG32037: -0.3
mtrm (matrimony): 0
Cog8 (Component of oligomeric golgi complex 8): -0.1
ocm (over compensating males): -0.1
CG4892: -0.3
CG31676: -0.4
CG11562: -0.6
Vps36 (Vacuolar protein sorting 36): -0.1
Usp2 (Ubiquitin specific protease 2) #1: 0
